Data source: PubChem BioAssay AID504804 (Drosophila RNAi Screening Center, 2011)
The deposit covers about 19,000 reagents; shown is an unselected part of those that have a named target and a result. Of all reagents, 47 (0.25%) are marked active. 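Signals are raw, not normalised; exact z-scores behind calls not deposited; actives needed confirmation, so some wells reaching 2 SD are inactive.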 Entries without a mark were called inactive. The numbers tell different reagents against one gene apart. A plus sign joins genes that one reagent is predicted to hit.

- Purpose: 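Knock-downs shielding fly cells from apoptosis caused by DNA damage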 (primary screen)
- Cell system: Drosophila Kc cells
- Reagents: long dsRNA against Drosophila genes, 0.5 µg dsRNA per well
- Duration: 96 h (48 h knock-down, then 48 h drug)
- Conditions: doxorubicin 5 µg/ml for 48 h, added 48 h after dsRNA
- Detection: 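Viability measured as cellular ATP by luminescence after 48 h knock-down then 48 h doxorubicin at 5 µg/ml; unnormalised plate counts for each replicate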
- Reading the numbers: raw ATP luminescence: higher = more viable cells, protection from doxorubicin
- Rule for the call: 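z-score of 2 or more over plate mean in both duplicates, retained only when retests and separate dsRNAs confirm the protection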

CG6508 → raw ATP luminescence, replicate 1 = 49427; raw ATP luminescence, replicate 2 = 78307
CG32214 → raw ATP luminescence, replicate 1 = 77547; raw ATP luminescence, replicate 2 = 61680
CG7607 → raw ATP luminescence, replicate 1 = 64967; raw ATP luminescence, replicate 2 = 65280
ND-SGDH (NADH dehydrogenase (ubiquinone) SGDH subunit) → raw ATP luminescence, replicate 1 = 55213; raw ATP luminescence, replicate 2 = 58273
CG17931 + CG42446 → raw ATP luminescence, replicate 1 = 77230; raw ATP luminescence, replicate 2 = 64930
GatB (Glutamyl-tRNA amidotransferase, subunit B) → raw ATP luminescence, replicate 1 = 72760; raw ATP luminescence, replicate 2 = 1.08e5
CG14856 → raw ATP luminescence, replicate 1 = 81120; raw ATP luminescence, replicate 2 = 66430
CG31323 → raw ATP luminescence, replicate 1 = 74370; raw ATP luminescence, replicate 2 = 53410
Smg6 → raw ATP luminescence, replicate 1 = 46780; raw ATP luminescence, replicate 2 = 37080
PXo (P[[i]]-sensitive XPR1 orthologue) → raw ATP luminescence, replicate 1 = 38677; raw ATP luminescence, replicate 2 = 35843
GluRIB + CG42509 (retired record) #1 → raw ATP luminescence, replicate 1 = 59573; raw ATP luminescence, replicate 2 = 62837
GluRIB + CG42509 (retired record) #2 → raw ATP luminescence, replicate 1 = 70747; raw ATP luminescence, replicate 2 = 54520
CG40198 → raw ATP luminescence, replicate 1 = 1.86e5; raw ATP luminescence, replicate 2 = 1.93e5
Osi12 (Osiris 12) → raw ATP luminescence, replicate 1 = 71773; raw ATP luminescence, replicate 2 = 51733
CG14333 (retired record) #1 → raw ATP luminescence, replicate 1 = 66810; raw ATP luminescence, replicate 2 = 86790
CG14333 (retired record) #2 → raw ATP luminescence, replicate 1 = 57430; raw ATP luminescence, replicate 2 = 50280
CG7824 → raw ATP luminescence, replicate 1 = 49570; raw ATP luminescence, replicate 2 = 41630
CG30050 → raw ATP luminescence, replicate 1 = 84803; raw ATP luminescence, replicate 2 = 89040
CG15676 → raw ATP luminescence, replicate 1 = 64767; raw ATP luminescence, replicate 2 = 68373
